# The list shows a part of the results. Shown are side measurements of this screen, not its main read-out; they come without a call. Compounds called inactive in the main read-out are mostly missing here. The note in brackets gives the kind of curve behind each potency; many fits are weak.
# Assay: qHTS Assay for Lipid Storage Modulators in Drosophila S3 Cells;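 as to cell number change: cells counted by Cell Tracker Red CMTPX staining in the red channel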
# Conditions: BODIPY lipid droplet fluorescence, 18-24 h; for cell number change: measured here: cell count max response, cells fed with added oleic acid
# Summary of the method: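 Drosophila S3 cells loaded with oleic acid (400 uM, as added) and compounds at several concentrations; lipid droplets imaged by 488-nm laser-scanning cytometry, 500–530 nm intensity and object ratio to cell channel. Percent activity normalized to 20 uM Triacsin C.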
# [1] = measured here: cell number channel AC50, cells fed with added oleic acid
# [2] = measured here: lipid fluorescence (Fed channel) AC50, cells fed with added oleic acid
SMILES,cell number change [%],AC50 [1],AC50 [2]
CNC(=O)COC(=O)CCC(=O)c1cccs1,-107,"18.4 µM [falling, partial curve, poor fit]","32.6 µM [falling, partial curve, poor fit]"
COc1ccc(N/C(=N\c2nc(C)cc(C)n2)NC(C)=O)cc1OC,–,–,"0.058 µM [falling, full curve, poor fit]"
COC(=O)c1sc(N)c(C(=O)OC)c1Cn1ncc(Cl)c(Cl)c1=O,-45.5,"29.1 µM [falling, single point]","29.1 µM [falling, single point]"
c1ccc(Nc2cc(-c3ccccc3)nc3ncnn23)cc1,-12.1,–,"1.16 µM [rising, full curve]"
S=C(NCCc1ccccc1)N1CCCCC1,-32.1,–,–
Cc1cccc(CN2CCN(CC(=O)NCc3cccs3)C2=O)c1,-3.12,–,"3.66 µM [falling, single point]"
CC(C)c1ccccc1NS(=O)(=O)N(C)C,–,"1.46 µM [falling, partial curve, poor fit]","0.82 µM [falling, full curve]"
Cc1c(Cc2ccccc2)c(=O)oc2cc(OC(=O)c3ccccc3)ccc12,-25.1,"0.259 µM [falling, full curve]","0.092 µM [falling, full curve, poor fit]"
CCc1ccccc1NC(=S)N(CCCN1CCOCC1)Cc1ccccn1,96,"29.1 µM [rising, single point]","8.2 µM [rising, partial curve]"
COc1ccc(NC(=S)N2CCN(S(=O)(=O)c3ccc(F)cc3)CC2)cc1,21.7,–,–
COc1ccc(S(=O)(=O)CC2(O)CCN(C(=O)CC(C)C)CC2)cc1,-56.3,"29.1 µM [falling, single point]",–
O=C(Nc1cccc(NC(=O)c2cccs2)c1)c1ccc([N+](=O)[O-])o1,-46.4,"7.31 µM [falling, partial curve]","4.61 µM [falling, full curve]"
Cc1csc2nc(O)c(C(=O)NCCCc3ccccc3)c(=O)n12,–,"0.00651 µM [falling, full curve, poor fit]",–
COc1ccc2nc(NC(=O)C3=NN(c4ccccc4)C(=O)CC3)sc2c1,35.5,"16.4 µM [rising, single point]","16.4 µM [rising, partial curve]"
COc1cccc(OC)c1C(=O)Nc1cc2c(cc1N1CCOCC1)n(C)c(=O)n2C,6.49,–,"29.1 µM [falling, single point]"
O=C(OC1CCOC1=O)c1cncc(Br)c1 (stereo not given),-2.45,–,"7.31 µM [falling, partial curve]"
N/C(=N\NC(=O)Nc1ccccc1)c1ccccn1,3.27,"0.146 µM [falling, full curve, poor fit]",–
Cc1ccc(C(=O)Nc2cccc(C(=O)O)c2)cc1S(=O)(=O)N1CCCCC1,3.44,–,"6.51 µM [rising, single point]"
O=C(Nc1ccc2c(c1)OCO2)c1ccc([N+](=O)[O-])cc1[N+](=O)[O-],-25.7,–,"29.1 µM [falling, single point]"
O=C1CSC(=Nc2ccc(Cl)cc2)N1Cc1cccnc1,37.2,"29.1 µM [rising, single point]",–

SMILES,cell number change [%],AC50 [1],AC50 [2]
COc1cc(O)c(CCC(=O)c2ccc(OC)c(OC)c2)c(OC)c1,-30.2,"9.2 µM [falling, single point]",–
NS(=O)(=O)OCC(Cc1ccccc1)N1C(=O)c2ccccc2C1=O (stereo not given),-0.971,–,"29.1 µM [rising, single point]"
Cc1cc(C(=O)NNc2ccc(F)cc2F)no1,25,–,"14.6 µM [rising, single point]"
COc1ccc(OC)c(CCNC(=O)c2ccc(CS(=O)(=O)c3ccc(Br)cc3)o2)c1,-34.8,"0.517 µM [falling, full curve, poor fit]","32.6 µM [falling, single point]"
O=C(COC(=O)c1ccccc1F)NC1CC1,-39,"0.366 µM [falling, full curve, poor fit]",–
CCC(=O)Nc1nnc(-c2ccco2)o1,-58.6,"1.16 µM [falling, full curve]",–
COc1ccc(SN=C2C(C)=CC(=O)C=C2C)cc1,-53,"1.64 µM [falling, partial curve]","23.1 µM [falling, single point]"
Cc1ccc(C(=O)NCCc2nnc3ccc(N4CCCC4)nn23)cc1,-0.54,–,"6.51 µM [falling, single point]"
COc1ccc(N=Nc2c(-c3ccc(OC)cc3)[nH]oc2=O)cc1,148,"29.1 µM [rising, single point]","32.6 µM [falling, single point]"
O=c1ccc2cc(S(=O)(=O)N3CCN(c4cc(Cl)ccc4Cl)CC3)ccc2o1,151,"4.11 µM [falling, partial curve]","23.1 µM [rising, single point]"
Cc1[nH]c(=O)[nH]c(=O)c1/C=N/NC(=O)CCNC(=O)OC(C)(C)C,12.4,–,"18.4 µM [rising, single point]"
N=c1c(C(=O)NC2CCCCC2)cc2c(=O)n3ccccc3nc2n1Cc1ccccc1,7.79,–,"1.64 µM [rising, partial curve]"
Cc1ccc(C)c(C(=O)COC(=O)c2ccccc2N2C(=O)C3C4CCC(C4)C3C2=O)c1 (stereo not given),-12.9,–,"29.1 µM [falling, single point]"
CCCCn1c(N)c(N(CCOC)C(=O)COC(=O)COc2cccc(C(C)=O)c2)c(=O)[nH]c1=O,-31.6,"0.092 µM [falling, full curve]",–
CC(C)CNC(=S)N1CCN(C)CC1,-5.86,–,–
Nc1cccc(-c2nc3ccc(C(=O)c4ccccc4)cc3[nH]2)c1,-5.17,–,"14.6 µM [falling, partial curve]"
N#Cc1c2n(c(=S)n(-c3ccccc3)c1=O)CCCCC2,-1.14,–,–
N#CCCn1c(C(C#N)(CCC#N)CCC#N)nc2ccccc21,-18.9,–,"0.651 µM [falling, full curve, poor fit]"
Cc1ccc(S(=O)(=O)N2CCN(C(=O)CCC(=O)N3CCc4ccccc43)CC2)cc1,-16.2,–,"32.6 µM [falling, single point]"
N/C(=N/O)c1nc(N2CCCCC2)nc(N2CCCCC2)n1,-27.8,–,"29.1 µM [falling, single point]"

# Entries shown so far containing a nitro group on carbon:
SMILES,cell number change [%],AC50 [1],AC50 [2]
O=C(Nc1cccc(NC(=O)c2cccs2)c1)c1ccc([N+](=O)[O-])o1,-46.4,"7.31 µM [falling, partial curve]","4.61 µM [falling, full curve]"
O=C(Nc1ccc2c(c1)OCO2)c1ccc([N+](=O)[O-])cc1[N+](=O)[O-],-25.7,–,"29.1 µM [falling, single point]"

# (continued)

SMILES,cell number change [%],AC50 [1],AC50 [2]
Cc1ccccc1N1C(=O)CC(N2CCC(C(N)=O)CC2)C1=O (stereo not given),-16,–,"0.0058 µM [falling, full curve, poor fit]"
NC(=NC1CCCCC1)c1ccc([N+](=O)[O-])cc1,–,"2.91 µM [falling, partial curve]","1.84 µM [falling, partial curve]"
O=C(CSc1nnc(-c2ccncc2)o1)Nc1nncs1,11.5,–,"6.51 µM [rising, partial curve, poor fit]"
COc1cc(-c2cc(N)n(S(=O)(=O)c3ccccc3)n2)cc(OC)c1OC,79.8,"6.51 µM [rising, full curve]","3.66 µM [rising, partial curve]"
O=C(CN(C(=O)CCC(=O)Nc1ccccn1)c1ccc(F)cc1)NCCc1ccccc1,11.3,–,–
CC(C)c1ccc(-c2c(C#N)c(N)nc(SCC(=O)N3CCCCC3)c2C#N)cc1,16.4,–,"3.26 µM [rising, partial curve]"
O=C(NCCN1CCOCC1)c1ccc(Cl)cc1,-32,"32.6 µM [falling, single point]",–
COc1cc(CNCc2ccccn2)ccc1OCc1ccc(Cl)c(Cl)c1,-0.678,–,–
CCN1CCCC1CNC(=O)c1ccc2c(c1)N(Cc1cccc(Cl)c1)C(=O)c1ccccc1S2(=O)=O (stereo not given),9.35,–,"29.1 µM [rising, single point]"
Cc1[nH]c2ccccc2c1/C=N/n1cnnc1,-10.1,–,–
O=C(NC(=S)Nc1ccc(S(=O)(=O)Nc2ccccc2)cc1)C1CC1,-0.318,–,–
Cc1cccc(C)c1NC(=O)COC(=O)c1c2c(nc3ccccc13)/C(=C\c1ccc3c(c1)OCO3)CCC2,-57.4,"32.6 µM [falling, single point]","0.146 µM [rising, full curve, poor fit]"
CCCS(=O)(=O)N1CCCC(C(=O)NCCN2CCCCC2C)C1 (stereo not given),26.9,–,"18.4 µM [rising, single point]"
COc1ccc2cc3cc(C(=O)NCc4cccs4)oc3nc2c1,3.78,"0.651 µM [rising, full curve, poor fit]","0.58 µM [rising, full curve]"
O=C(CN1C(=O)NC(Cc2ccccc2)C1=O)Nc1ccc(OC(F)(F)F)cc1 (stereo not given),–,–,"18.4 µM [falling, single point]"
COc1ccc(Nc2nc(N3CCCC3)c3ccccc3n2)cc1,-44.3,"32.6 µM [falling, single point]",–
CCOC(=O)c1c(C)[nH]c(C)c1S(=O)(=O)Nc1ccc(CN2CCCCC2)cc1,-4.96,–,"20.6 µM [falling, partial curve, poor fit]"
Cc1ccc(NC(=O)COc2cccc3ccc(C)nc23)c(Br)c1,4.1,–,–
Cc1ccc(/C=C(\C#N)C(=O)Nc2cccc3ncccc23)o1,-44.7,"20.6 µM [falling, partial curve, poor fit]","14.6 µM [falling, partial curve]"
